Data as given in PubChem BioAssay AID1259254 (NCATS, 2017)
Aim: 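Genome-wide screen for genes that prevent DNA re-replication in cancer cells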 (primary screen). System: human HCT116 colorectal cancer cells. Reagent: single siRNA against human genes. Timing: 3 days. Detection: 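Imaged Hoechst DNA stain sorts each cell into a cycle phase by DNA amount; per plate, G2 fraction set to 0% for non-targeting and 100% for GMNN siRNA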. Reading the numbers: G2 robust z-score and G2 cells, % of GMNN control: higher = more G2 cells, more excess DNA replication. Call rule: 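An siRNA counts as active if its G2 robust z-score lies at least 5 MADs above the screen median; here such calls match roughly 38% of GMNN control or more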.
This is an unselected part of about 59,000 reagents tested. Over the whole deposit, about 1,550 (2.6%) were called active. 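G2 share is only a proxy for re-replication; each gene was hit by three separate siRNAs, and active genes were retested.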 Unmarked entries are inactive. Not all columns of the deposit are shown. Not stated in the record: the amount of reagent.

DCLRE1B (DNA cross-link repair 1B) [SID160748091] — G2 robust z-score = -0.869; G2 cells, % of GMNN control = -3.15
DCLRE1B (DNA cross-link repair 1B) [SID160748092] — G2 robust z-score = -0.863; G2 cells, % of GMNN control = -3.11
DCLRE1B (DNA cross-link repair 1B) [SID160748093] — G2 robust z-score = 2.22; G2 cells, % of GMNN control = 18.6
CROCC2 (ciliary rootlet coiled-coil, rootletin family member 2) [SID160726810] — G2 robust z-score = -0.649; G2 cells, % of GMNN control = -1.6
CROCC2 (ciliary rootlet coiled-coil, rootletin family member 2) [SID160726811] — G2 robust z-score = -1.38; G2 cells, % of GMNN control = -6.71
CROCC2 (ciliary rootlet coiled-coil, rootletin family member 2) [SID160734408] — G2 robust z-score = -0.47; G2 cells, % of GMNN control = -0.336

Copied from the listing for reference:
DCLRE1B (DNA cross-link repair 1B) [SID160748092] — G2 robust z-score = -0.863; G2 cells, % of GMNN control = -3.11
DCLRE1B (DNA cross-link repair 1B) [SID160748093] — G2 robust z-score = 2.22; G2 cells, % of GMNN control = 18.6

The list goes on.
SLU7 (spliceosome associated SLU7) [SID160728757] — G2 robust z-score = 1.53; G2 cells, % of GMNN control = 13.7
SLU7 (spliceosome associated SLU7) [SID160728758] — G2 robust z-score = 2.39; G2 cells, % of GMNN control = 19.8
SLU7 (spliceosome associated SLU7) [SID160730452] — G2 robust z-score = 1.18; G2 cells, % of GMNN control = 11.3
SPATA41 (spermatogenesis associated 41) [SID160765786] — G2 robust z-score = 4.96; G2 cells, % of GMNN control = 37.8
SPATA41 (spermatogenesis associated 41) [SID160765787] — G2 robust z-score = 1.04; G2 cells, % of GMNN control = 10.3
SPATA41 (spermatogenesis associated 41) [SID160765788] — G2 robust z-score = 0.39; G2 cells, % of GMNN control = 5.71
